Data taken from patent publication US8513380B2, “Peptides for binding fibrinogen and fibrin” (Georgia Tech Research Corporation, priority 2009, dated 2013).
Not every detail of the peptide structures is certain; ends, links or a residue may be inferred. Where a SMILES comes first, the peptide text is derived from it.

Target: T1, fibrinogen fragment D (Homo sapiens, UniProt P02675+P02679)
T1 construct: Fibrinogen fragment D, comprising the C-terminal polymerization pockets of fibrinogen (i.e. D-domain) without the N-terminal knobs; purchased Enzyme Research Laboratories FIB3
T1 sequence (P02679 89-432 limits assumed): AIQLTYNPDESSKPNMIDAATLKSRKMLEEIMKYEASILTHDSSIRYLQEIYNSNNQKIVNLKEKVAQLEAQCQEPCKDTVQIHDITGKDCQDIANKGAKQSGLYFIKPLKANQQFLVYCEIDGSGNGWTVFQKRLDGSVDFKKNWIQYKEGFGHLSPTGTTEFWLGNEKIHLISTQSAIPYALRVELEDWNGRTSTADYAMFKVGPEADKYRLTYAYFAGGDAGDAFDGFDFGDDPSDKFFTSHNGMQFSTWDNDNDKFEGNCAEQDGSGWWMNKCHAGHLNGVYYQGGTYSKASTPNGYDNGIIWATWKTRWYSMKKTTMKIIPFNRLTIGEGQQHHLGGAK
T1 sequence (P02675 164-491 limits assumed): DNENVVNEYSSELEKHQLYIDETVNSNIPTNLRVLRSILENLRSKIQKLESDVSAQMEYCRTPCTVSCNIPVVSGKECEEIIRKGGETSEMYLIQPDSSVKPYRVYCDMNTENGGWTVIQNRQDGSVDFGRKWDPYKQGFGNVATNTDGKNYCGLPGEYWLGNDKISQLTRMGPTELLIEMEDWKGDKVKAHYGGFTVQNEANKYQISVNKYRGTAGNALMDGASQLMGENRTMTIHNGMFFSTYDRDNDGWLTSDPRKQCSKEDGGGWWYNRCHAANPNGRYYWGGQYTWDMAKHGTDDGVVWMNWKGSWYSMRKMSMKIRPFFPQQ
T1 sequence (P02671 124-216 partner limits assumed): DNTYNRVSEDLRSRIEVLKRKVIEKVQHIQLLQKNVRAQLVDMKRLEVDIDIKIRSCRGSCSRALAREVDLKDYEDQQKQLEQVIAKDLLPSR
Experiment: SPR binding kinetics of knob 'A' peptides on immobilized fibrinogen fragment D
Conditions: for B*max / ka2 / kd2: site 2
Protocol: Human fibrinogen (Enzyme Research Laboratories, South Bend, Ind.) at 2 mg/mL was digested with 0.1 U/mL human plasmin (ERL) in HEPES+CaCl2 buffer (150 mM NaCl, 5 mM CaCl2, 25 mM HEPES; pH 7.4) overnight at room temperature. Fragment D was isolated as previously described, with slight modifications (Kostelansky M S, et al. Biochemistry. 2002; 41(40):12124-12132). Briefly, the plasmin-digested fibrinogen and GPRPAA (SEQ ID NO:10) beads were incubated for 30 min, with occasional agitation. The unbound proteins and protein fragments were removed with excessive washing with HEPES+CaCl2 buffer. Fragment D was eluted with 1M sodium bromide and 50 mM sodium acetate (pH 5.3). Eluted samples were pooled together and exchanged back into HEPES+CaCl2 buffer using a centrifugal filter (MWCO 10,000). Fragment D was verified by SDS-PAGE and stored at −80° C. until use.
The Biacore 2000 (Biacore Lifesciences, GE Healthcare, Pittsburgh, Pa.) was used investigate kinetic binding constants (ka and kd) of knob ‘A’ peptide variants for fibrinogen fragment D. Briefly, fragment D was covalently immobilized to gold-coated SPR sensor chips via self-assembled monolayer (SAM) surface chemistry in order to generate a non-fouling surface with a controlled density of reactive carboxylic acid groups. Mixed SAMs were generated on gold-coated chips as described previously (Petrie T A, et al. Biomaterials. 2006; 27(31):5459-5470) by incubating with a 1 mM mixture of tri(ethylene glycol)-terminated alkanethiols (HS-(CH2)11—(OCH2CH2)3—OH; EG3; ProChimia, Poland) and carboxylic acid-terminated alkanethiols (HS-(CH2)11—(OCH2CH2)6—OCH2COOH; EG6-COOH) for 4 hrs. Upon loading the sensor chip into the Biacore 2000, the EG6-COOH in all four flow cells was activated by flowing 200 mM 1-ethyl-3-(3-dimethylaminopropyl) carbodiimide (EDC; Sigma Aldrich, St. Louis, Mo.) and 50 mM N-hydroxysuccinimide (NHS; Sigma Aldrich) (5 μL/min for 10 min). Immediately following activation, fragment D was immobilized in three flow cells (5 μL/min for 10 min) to achieve 1800-2000 resonance units (RU; 1RU˜1 pg/mm^2). Unreacted NHS groups were quenched in all four flow cells (three sample cells and one reference cell) with 20 mM ethanolamine ([…] for 10 min). Upon stabilization of the baseline signal, kinetic binding experiments were run in duplicate with the peptide variants as the flow analytes. Five varying concentrations for each peptide (0.94 μM to 150 μM) were flowed at 25 μL/min for 4 min immediately followed by a 10 min dissociation phase. Between each run, the surface was regenerated with 1M sodium bromide and 50 mM sodium acetate (pH 6.0). SPR experiments were performed three times with varying peptide injection order to rule out binding trends associated with injection sequence. Peptide solutions were incubated with tris(2-carboxyethyl)phosphine (TCEP) immobilized on agarose beads (Thermo Fisher Scientific, Inc; Rockland, Ill.) to ensure reduction of any disulfide bonds between C-terminal cysteines.
SPR sensorgrams were analyzed with the aid of Scrubber 2 and ClampXP software (Center for Biomolecular Interactions Analysis, University of Utah) (Morton T A, et al. Methods Enzymol. 1998; 295:268-294; Morton T A, et al. Anal Biochem. 1995; 227(1):176-185; Myszka D G, et al. Trends Biochem Sci. 1998; 23(4):149-150). Prior to analysis, all sensorgrams were inspected for abnormalities (i.e. baseline drift, air spikes, or irregular deviations) and excluded. Reference cell responses were subtracted from corresponding active response curves. Double-referenced curves were acquired by further subtracting the reference cell blank buffer injections from each reference-subtracted response curve (Myszka D G. Mol. Recognit. 1999; 12(5):279-284). All double-referenced curves were normalized by the molecular weight of each peptide and multiplied by 1000 to account for minor variations in response due to molecular weight. The resulting curves were then analyzed and fitted to the kinetic models. […]

[1] = heterogeneous ligand model, site 1
[2] = heterogeneous ligand model, site 1, as printed in text
[3] = heterogeneous ligand model, as printed in text

Row | SMILES | Bmax, maximal binding capacity of fragment D (Langmuir 1:1 model) | RSS, residual sum of squares (Langmuir 1:1 model) | RSS, residual sum of squares (heterogeneous ligand model) | Bmax, maximal binding capacity of fragment D [1] | ka1 [1] | kd1 [1] | ka1 [2] | B*max (heterogeneous ligand model) | ka2 (heterogeneous ligand model) | kd2 (heterogeneous ligand model) | ka2 [3] | kd1 [2] | kd2 [3]
1 | N=C(N)NCCC[C@H](NC(=O)[C@H](CCC(=O)O)NC(=O)[C@@H]1CCCN1C(=O)[C@@H]1CCCN1C(=O)[C@H](CCCNC(=N)N)NC(=O)[C@@H]1CCCN1C(=O)CN)C(=O)N[C@@H](CS)C(=O)O [GPRPPERC] (H-GPRPPERC-OH) | 19.20 ± 0.21 RU | 1.885 | 0.9437 | 14.58 ± 0.23 RU | 3.22 ± 0.12 (M^−1s^−1) × 10^−3 | 58.73 ± 1.86 (s−1) × 10^3 | 3220 M⁻¹ s⁻¹ | 5.92 ± 0.13 RU | 1.01 ± 0.03 (M^−1s^−1) × 10^−3 | 2.96 ± 0.09 (s^−1) × 10^3 | 1010 M⁻¹ s⁻¹ |  | 
2 | CC(C)[C@H](NC(=O)[C@H](CCCNC(=N)N)NC(=O)[C@@H]1CCCN1C(=O)CN)C(=O)N[C@H](C(=O)N[C@@H](C)C(=O)N[C@@H](C)C(=O)N[C@@H](CS)C(=O)O)C(C)C [GPRVVAAC] (H-GPRVVAAC-OH) | 18.88 ± 0.18 RU | 1.497 | 1.266 | 8.36 ± 0.24 RU | 0.62 ± 0.04 (M^−1s^−1) × 10^−3 | 30.08 ± 1.51 (s−1) × 10^3 | 620 M⁻¹ s⁻¹ | 13.52 ± 0.32 RU | 0.04 ± 0.001 (M^−1s^−1) × 10^−3 | 1.00 ± 0.07 (s^−1) × 10^3 | 40 M⁻¹ s⁻¹ | 0.03008 s⁻¹ | 0.001 s⁻¹
3 | C[C@H](NC(=O)[C@H](C)NC(=O)[C@@H]1CCCN1C(=O)[C@H](CCCNC(=N)N)NC(=O)[C@@H]1CCCN1C(=O)CN)C(=O)N[C@@H](CS)C(=O)O [GPRPAAC] (H-GPRPAAC-OH) | 21.47 ± 0.19 RU | 2.197 | 1.474 | 19.38 ± 0.23 RU | 2.84 ± 0.14 (M^−1s^−1) × 10^−3 | 12.83 ± 0.49 (s−1) × 10^3 | 2840 M⁻¹ s⁻¹ | 5.91 ± 0.08 RU | 1.05 ± 0.09 (M^−1s^−1) × 10^−3 | 8.95 ± 1.05 (s^−1) × 10^3 | 1050 M⁻¹ s⁻¹ | 0.01283 s⁻¹ | 0.00895 s⁻¹
4 | CC(C)[C@H](NC(=O)[C@H](CCCNC(=N)N)NC(=O)[C@@H]1CCCN1C(=O)CN)C(=O)N[C@H](C(=O)N[C@@H](CCC(=O)O)C(=O)N[C@@H](CCCNC(=N)N)C(=O)N[C@@H](CS)C(=O)O)C(C)C [GPRVVERC] (H-GPRVVERC-OH) | 16.27 ± 0.08 RU | 1.521 | 0.9817 | 25.61 ± 0.28 RU | 1.07 ± 0.03 (M^−1s^−1) × 10^−3 | 57.67 ± 2.24 (s−1) × 10^3 | 1070 M⁻¹ s⁻¹ | 10.33 ± 0.23 RU | 0.26 ± 0.01 (M^−1s^−1) × 10^−3 | 4.07 ± 0.06 (s^−1) × 10^3 | 260 M⁻¹ s⁻¹ | 0.05767 s⁻¹ | 0.00407 s⁻¹
